From PubChem BioAssay AID504834 (National Center for Advancing Translational Sciences (NCATS), 2011)
Screen size: about 320,000 compounds; about 22,000 (6.9%) were called active. The inconclusive results got no clear call from the source; some entries with a clear call stand among them for comparison. The call rests on the fitted dose curve; in most records, active means well fitted inhibition curve with a large enough effect; inconclusive means small, poorly fitted or top-dose-only effect, or another doubt; inactive means no such curve, though single readings can be large or run the other way. Potencies of inconclusive entries are doubtful fits and often do not repeat.
Potency means the concentration at half of the fitted maximal effect.

Test: Primary qHTS for delayed death inhibitors of the malarial parasite plastid, 96 hour incubation
Settings: P. falciparum luciferase reporter growth; series mostly up to 28.7 µM
Summary of the method: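 Luminescence readout: decreased luciferase signal marks inhibited growth of reporter-expressing P. falciparum in infected red cells (2% hematocrit, 0.05% parasitemia final), exposed to compound two generations (96 h, 37 C, 5% CO2).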
With `c1ccc2c(-c3csc(-c4ccncc4)n3)c[nH]c2c1` the Potency was inconclusive: 18.5 µM [inhibitor, single point].
In the case of `Cc1onc(-c2ccccc2Cl)c1C(=O)N1CCN(C(=O)c2ccco2)CC1`, the Potency is reported as inconclusive: 1.04 µM [inhibitor, partial curve, poor fit].
In the case of `COc1ccc2[nH]c(N=Nc3ccccc3C)c(O)c2c1`, the Potency is reported as “inactive”.
In the case of `CS(=O)(=O)Nc1ccc(C(=O)Nc2ccc3c(c2)OCO3)cc1`, the Potency is reported as “inactive”.
With `COc1cc(/C=N/n2cnnc2-n2nc(C)cc2C)cc([N+](=O)[O-])c1O` the Potency was “inactive”.
With `CC(=O)Cc1nsc(NC(=O)c2ccc(-c3ccc(F)cc3)o2)n1` the Potency was inconclusive: 18.5 µM [inhibitor, single point].
In the case of `CCCCCOc1ccc(C2C(C(C)=O)=C(C)Nc3ncnn32)cc1OC` (stereo not given), the Potency is reported as “inactive”.
For `O=C(CCSCc1cccc(Cl)c1)NCCc1ccccc1`, the Potency was inconclusive: 18.5 µM [inhibitor, single point].
With `Cc1cccc(NC(=O)c2cccnc2Cl)n1` the Potency was inconclusive: 14.7 µM [inhibitor, partial curve, poor fit].
In the case of `CCOC(=O)c1c(C)[nH]c(C)c1C(=O)CSc1nc2ccccc2n1CC`, the Potency is reported as inconclusive: 10.4 µM [inhibitor, single point].
For `O=C(CSc1nnc(-c2cccnc2)n1Cc1ccco1)NCc1ccc2c(c1)OCO2`, the Potency was inconclusive: 4.15 µM [inhibitor, single point].
For `COc1ccc(C(=O)NC(Oc2ccccc2)C(Cl)(Cl)Cl)cc1` (stereo not given), the Potency was inconclusive: 0.131 µM [inhibitor, full curve, poor fit].
For `COCCNC(=O)c1ccc(C2SCC(=O)N2Cc2ccco2)cc1` (stereo not given), the Potency was inconclusive: 14.7 µM [inhibitor, single point].
In the case of `CCOc1ccc(S(=O)(=O)N(CC)CC)cc1N`, the Potency is reported as inconclusive: 0.117 µM [inhibitor, full curve, poor fit].
For `CCCSc1nc2c(c(=O)n(C)c(=O)n2C)n1C`, the Potency was inconclusive: 13.1 µM [inhibitor, partial curve, poor fit].
With `Nc1c(C(=O)NCc2ccc(F)cc2)c2nc3ccccc3nc2n1CCCN1CCOCC1` the Potency was inconclusive: 18.5 µM [inhibitor, single point].
With `CC(C)(C)c1ccc(C(=O)N2CCN(C(=O)c3ccco3)CC2)cc1` the Potency was “inactive”.
For `Cc1ccccc1NC(=O)Cc1nc(COC(=O)c2ccc(C(F)(F)F)cc2)cs1`, the Potency was “inactive”.
In the case of `Cc1ccc(S(=O)(=O)Nc2nc3ccccc3s2)cc1`, the Potency is reported as inconclusive: 11.7 µM [inhibitor, single point].
For `CC(=O)N1CCc2cc(S(=O)(=O)N3CCOCC3)ccc21`, the Potency was inconclusive: 0.0738 µM [inhibitor, full curve, poor fit].
With `Cc1ccc(-c2cccc(CN3CCN(C(C)C)C(CCO)C3)c2)o1` (stereo not given) the Potency was inconclusive: 1.47 µM [inhibitor, full curve, poor fit].
In the case of `CCOc1cc(/C=N/Nc2nc(N3CCCC3)nc(N3CCCC3)n2)ccc1O`, the Potency is reported as inconclusive: 9.28 µM [inhibitor, partial curve, poor fit].
With `COc1ccc(NC(=O)CN(C)C(=O)c2cn(-c3ccccc3)nc2-c2cccnc2)cc1` the Potency was inconclusive: 18.5 µM [inhibitor, single point].
For `Cc1ccc(CC2SC(N)=NC2=O)cc1` (stereo not given), the Potency was “inactive”.
With `CSc1nc(Sc2cccc(Cl)c2)c2ccccc2n1` the Potency was inconclusive: 6.57 µM [inhibitor, partial curve, poor fit].
For `Cc1ccc(-n2cc(CN3CCCN(C=O)CC3)c(-c3ccc(F)cc3)n2)cc1`, the Potency was inconclusive: 9.28 µM [inhibitor, partial curve].
For `CSCCNCc1cn(-c2ccc(F)cc2F)nc1-c1ccccc1C`, the Potency was inconclusive: 9.28 µM [inhibitor, partial curve, poor fit].
With `CNC(=O)c1sc2nc(-c3ccc(OC)cc3)cn2c1C` the Potency was “inactive”.
With `CCCCN1CNC(=S)N(c2cc(C)ccc2C)C1` the Potency was inconclusive: 9.28 µM [inhibitor, partial curve, poor fit].
With `COc1ccc(-c2ccc(CCC(=O)O)o2)cc1` the Potency was inconclusive: 1.31 µM [inhibitor, partial curve, poor fit].
In the case of `CCCS(=O)(=O)N1CCN(C(=O)COc2ccc(-c3ccccc3)cc2)CC1`, the Potency is reported as “inactive”.
With `O=C(CSc1nc2ccc(NC(=O)c3ccccc3C(=O)O)cc2s1)Nc1ccc(F)c([N+](=O)[O-])c1` the Potency was “inactive”.
With `OCCC1CN(C2CCC2)CCN1Cc1ccc(F)c(F)c1` (stereo not given) the Potency was active: 11.7 µM.
With `CCOc1ccccc1C(C(=O)NC1CCCC1)N(Cc1ccco1)C(=O)CNC(=O)c1ccco1` (stereo not given) the Potency was inconclusive: 2.08 µM [inhibitor, partial curve, poor fit].
In the case of `Cc1ccc2[nH]c(=O)cc(C(=O)OC(C)C)c2c1`, the Potency is reported as “inactive”.
In the case of `C/C(=N\OCC(=O)OC(C)C(=O)Nc1ccc(C(N)=O)cc1)c1ccc2c(c1)OCO2` (stereo not given), the Potency is reported as “inactive”.
For `O=C(Nc1ccc(N2CCCCC2)cc1)c1cc(S(=O)(=O)N2CCOCC2)ccc1F`, the Potency was “inactive”.
In the case of `Cc1nc(C(=O)NC2CCOCC2)sc1C1(C)CC(c2cccc([N+](=O)[O-])c2)=NO1` (stereo not given), the Potency is reported as “inactive”.
With `CCc1c(C(=O)O)[nH]c2ccc(Br)cc12` the Potency was inconclusive: 2.94 µM [inhibitor, partial curve, poor fit].
In the case of `O=C(c1ccc2c(c1)OCCO2)N1CCN(Cc2ccccc2)CC1`, the Potency is reported as inconclusive: 7.38 µM [inhibitor, partial curve, poor fit].
In the case of `Cc1cccc(C)c1OCc1cc(C(=O)N2CCC(c3ccccc3)CC2)no1`, the Potency is reported as inconclusive: 16.5 µM [inhibitor, single point].
With `COC(=O)N/N=C/c1cn(Cc2c(Cl)cccc2Cl)c2ccccc12` the Potency was inconclusive: 18.5 µM [inhibitor, single point].
In the case of `CC(=O)c1c(C)[nH]c(C(=O)OCC(=O)c2c(N)n(CC(C)C)c(=O)n(C)c2=O)c1C`, the Potency is reported as inconclusive: 11.7 µM [inhibitor, single point].
In the case of `O=[N+]([O-])c1ccc(NCc2ccccc2)nc1`, the Potency is reported as “inactive”.
In the case of `CC(C)(C)C1CCC(=NNC(=O)C(=O)NC2CCCCC2)CC1` (stereo not given), the Potency is reported as “inactive”.
